{
  "source": "paper PMC4014002",
  "about": "(The FEBS journal, 2014)",
  "origin": "cited, not measured here",
  "target": "T94T and T94A",
  "conditions": "cited from earlier work",
  "data": [
    {"smiles": "CC(C)OC(=O)C(C)(C)Oc1ccc(C(=O)c2ccc(Cl)cc2)cc1", "note": "[fenofibrate]", "values": [
      {"measurement": "Ki, T94T compared with T94A", "value": "same (or similar) Ki"}
    ]}
  ]
}
